Drawing on publication PMC5895054, this text covers binding for 4 substances.

The chains behind the UniProt entries cited, without tags or fusion partners. Residues count along the entry.
UniProt Q9XF23: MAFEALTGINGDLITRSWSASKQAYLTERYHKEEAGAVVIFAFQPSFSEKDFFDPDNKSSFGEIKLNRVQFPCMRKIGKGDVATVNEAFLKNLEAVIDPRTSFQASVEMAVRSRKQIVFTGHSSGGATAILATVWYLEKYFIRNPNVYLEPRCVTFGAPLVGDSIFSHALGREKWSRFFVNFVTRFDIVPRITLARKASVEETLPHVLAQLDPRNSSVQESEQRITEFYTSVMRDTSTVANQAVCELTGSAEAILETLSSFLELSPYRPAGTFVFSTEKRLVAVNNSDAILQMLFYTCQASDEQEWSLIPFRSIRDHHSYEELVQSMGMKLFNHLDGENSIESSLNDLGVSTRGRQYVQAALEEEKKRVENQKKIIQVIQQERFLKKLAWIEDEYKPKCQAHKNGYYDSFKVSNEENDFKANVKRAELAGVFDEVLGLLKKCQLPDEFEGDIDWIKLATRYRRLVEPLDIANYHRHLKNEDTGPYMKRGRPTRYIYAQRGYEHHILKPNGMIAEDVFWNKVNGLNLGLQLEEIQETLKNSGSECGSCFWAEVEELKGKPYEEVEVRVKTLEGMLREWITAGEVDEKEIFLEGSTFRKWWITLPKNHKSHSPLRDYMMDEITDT
GST-AvrRps4^N (Q52432, residues 1-133): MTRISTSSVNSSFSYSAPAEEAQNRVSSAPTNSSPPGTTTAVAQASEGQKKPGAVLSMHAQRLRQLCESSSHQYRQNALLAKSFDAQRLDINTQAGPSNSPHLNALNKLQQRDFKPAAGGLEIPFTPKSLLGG
GST-AvrRps4^C (Q52432, residues 134-220): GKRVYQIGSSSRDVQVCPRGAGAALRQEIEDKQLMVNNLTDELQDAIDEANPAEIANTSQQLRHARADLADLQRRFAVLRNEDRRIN

The target in one assay is His-T7-EDS1 (UniProt Q9XF23). The assay can be described thus: pull-down; nickel purification: His-T7-EDS1 and a GST-AvrRps4 construct co-expressed in E. coli BL21(DE3); lysate in 50 mM sodium phosphate, 300 mM NaCl, 20 mM imidazole, pH 7.4 passed over nickel beads, washed with 20-200 mM imidazole, eluted with 250 mM imidazole at 4°C; immunoblot. In general terms: In western blotting, separated proteins are transferred to a membrane and probed.

The target in assay [1] is AvrRps4^C-GFP (Pseudomonas syringae pv. pisi) (UniProt Q52432). The assay can be described thus: co-IP; microsomal Myc-EDS1 with GFP-tagged AvrRps4 fragments or GFP with an ER retention signal, expressed in N. benthamiana; which partner was precipitated is not told.
The target of assay [2] is GFP-AvrRps4^N (Pseudomonas syringae pv. pisi) (UniProt Q52432). The assay is described as above.
Assay [3] concerns the target HA-AvrRps4 C-terminus (Pseudomonas syringae pv. pisi) (UniProt Q52432). As to the kind of experiment: co-IP; Myc-EDS1 and HA-AvrRps4 fragments co-expressed in N. benthamiana; microsomal fraction (100,000 x g pellet) resuspended in buffer H (50 mM HEPES pH 7.5, 250 mM sucrose, 15 mM EDTA, 5% glycerol, 3 mM DTT) with 1% NP-40; HA-conjugated beads, 4°C, 1 hour; washed with buffer H with 0.2% NP-40.

For assay [4], the target named is HA-AvrRps4 N-terminus (Pseudomonas syringae pv. pisi) (UniProt Q52432). The assay is described as above.
In assay [5] the target is GST-AvrRps4^C (Pseudomonas syringae pv. pisi) (UniProt Q52432). As to the kind of experiment: pull-down; GST purification: lysate with the GST protein bound to the GST column in TBS, 1 hr at 4°C, washed with 100x column volume; His-T7-EDS1 lysate (2x dilution) added, 1 hr at 4°C; washed; eluted with 10 mM glutathione; immunoblot; only the target purified.
Assay [6] deals with GST-AvrRps4^N (Pseudomonas syringae pv. pisi) (UniProt Q52432). Described as above.

These are yes or no findings as the source states them, for the method shown. Binding seen in cells or lysates may run through a third protein. Some binding calls cover weakened binding; strength is not graded here.

Turning to “GST-AvrRps4^C (from UniProt Q52432 134-220) (domain or fragment)”, the binding entry with His-T7-EDS1 is on record as “binds”.
The same measure, in the same setting: next, “GST-AvrRps4^N (from UniProt Q52432 1-133) (domain or fragment)”: “binds”.
In the case of “Myc-EDS1 (ENHANCED DISEASE SUSCEPTIBILITY1) (from UniProt Q9XF23 1-623)”, the binding entry in assay [1], in assay [2], in assay [3] and in assay [4] was “binds” in each case.
As for His-T7-EDS1 (from UniProt Q9XF23 1-623), the binding entry in assay [5] and in assay [6] was “binds” each time.
